# Test results: PubChem BioAssay AID588497 (NMMLSC, 2011)
# The whole screen tested about 360,000 compounds, of which about 780 (0.22%) were called active. Inconclusive means that the source gave no clear call. Such entries were picked first, then a sample of the others. Cut-off read from the data, not from the text of the source: active = inhibition above about 35% (passing the limit was not always enough); inconclusive = no clear call, values can overlap the other calls.
# System: Botulinum neurotoxin type F light chain protease (Clostridium botulinum)
# Experiment: BoNT/F light chain protease inhibitors, primary screen, biochemical, flow cytometry, MLPCN library (AID 588497); note: plate controls were buffer without enzyme for full effect and enzyme alone for no effect
# Conditions: Multiplex microsphere protease cleavage assay, at 10 µM, active compounds read high
row,Compound,inhibition
1,CCOc1ccccc1NC(=O)c1ccccc1N(C)S(=O)(=O)c1ccc(C)cc1,inconclusive: -14.3%
2,CCOC(=O)Cc1csc(NC(NC(=O)CC)(C(F)(F)F)C(F)(F)F)n1,inconclusive: -25.2%
3,COc1cc(C(=O)Nc2ccc3c(c2)ncn3C(C)(C)C)cc(OC)c1OC,inconclusive: -19.2%
4,CN1CCN(c2nc(-c3ccc(Cl)cc3)cc(=O)[nH]2)CC1,inconclusive: -0.5%
5,CC(C)NC(=O)CCc1nc2cccnc2n1-c1ccccc1,inconclusive: -11.2%
6,CCOC(=O)C1C(c2ccc(O)c(OC)c2)NC(=O)NC1(O)C(F)(F)F (stereo unspecified),inconclusive: 4.8%
7,Cc1ccc(NC(=O)CN2CCN(C)CC2)cc1Br,inconclusive: -3.5%
8,N=c1c2c3c(sc2nc2n1CCC2)CCCC3,inconclusive: -17.8%
9,CCCCSc1nc2sc3c(c2c(=O)n1-c1ccc(OC)cc1)CCN(C)C3,inconclusive: 8.5%
10,Cc1ccc(-c2nnn(CC(=O)N(Cc3cccs3)C(C(=O)NC3CCCCC3)c3ccco3)n2)o1 (stereo unspecified),inactive: 5.5%
11,CC(=O)NC(c1ccc(F)c(F)c1)c1nc(-c2ccccc2C)cs1 (stereo unspecified),inactive: -0.7%
12,CC(C)C(NC(=O)c1ccc(Cl)cc1)C(=O)NCC1CCCO1 (stereo unspecified),inactive: -4.5%
13,CC(=O)N1CCc2cc(S(=O)(=O)NCCN3CCC(C)CC3)ccc21,inconclusive: -19.8%
14,COc1ccc(N2C(=O)c3ccccc3NC23C(=O)N(C)c2ccccc23)cc1 (stereo unspecified),inactive: -3.7%
15,COC(=O)c1ccc(C(=O)OC)c(NC(=O)CN(C)Cc2ccc(Cl)c(Cl)c2)c1,active: 65%
16,COc1ccc([C@H]2CC(=O)C=C(c3cccc(C(C)C)c3)C2)cc1OC,inactive: -4.6%
17,CCOC(=O)CNC(=O)N1CCc2ccc(NC(=O)c3ccccc3Cl)cc2C1,inconclusive: 16.8%
18,C=CCn1c(NCc2ccc(OC)cc2O)nc2ccccc21,inconclusive: -34.4%
19,CC(Oc1ccc(Cl)cc1)C(=O)Nc1ccccc1N1CCOCC1 (stereo unspecified),inactive: -12.4%
20,COc1ccc(C(=O)NNC(=O)Cc2nc3nc(C)cc(C)n3n2)cc1,inactive: -0.5%
21,COc1cc(NC(=O)Nc2c(C)n(C)n(-c3ccccc3)c2=O)cc(OC)c1OC,inconclusive: -17.1%
22,COC(=O)n1c(=O)oc2cc(S(=O)(=O)N3CCCCC3)ccc21,inactive: 2.9%
23,CC(=O)N1CCN(c2ccc(NC(=O)c3cccc(Cl)c3Cl)cc2)CC1,inconclusive: -54.3%

row,Compound,inhibition
1,O=[N+]([O-])c1ccc(CSc2ccc(S(=O)(=O)N3CCCCCC3)cn2)cc1,inactive: 0.9%
2,CC12CCC(C(N)=O)(c3nc4ccccc4nc31)C2(C)C (stereo unspecified),inconclusive: 1.4%
3,CC(=O)Nc1cccc(C(=O)OCC(=O)NC(=O)c2ccccc2)c1,inconclusive: -12.2%
4,CCN(CC)S(=O)(=O)c1cccc(C(=O)NC2=NCCS2)c1,inconclusive: -25.9%
5,Cc1nnsc1Sc1ccccc1C(=O)O,inactive: -6.5%
6,CNC(=O)N(C)c1ccc(C(O)(C(=O)OC)C(F)(F)F)cc1 (stereo unspecified),inconclusive: 44.9%
7,Oc1ccc(Br)cc1/C=N/n1c(-c2ccccc2)n[nH]c1=S,inconclusive: -9.1%
8,COC(=O)c1c(-c2snnc2C)n[nH]c1C,inconclusive: -106%
9,CC(NO)C(C)(C)NO (stereo unspecified),inconclusive: -22.5%
10,O=C(CN1CCN(S(=O)(=O)c2ccc(F)cc2)CC1)NCC1(N2CCOCC2)CCCCC1,inactive: -2.2%
11,Cc1ccc(S(=O)(=O)N2CCN3CCCC3C2)cc1 (stereo unspecified),inconclusive: 22.6%
12,C=CCn1c(CCNC(=O)c2cccs2)nnc1SCC(=O)Nc1cccc(Cl)c1C,inactive: -2.8%
13,Cc1nnc(SC(C)C(=O)NC2CCCCC2)s1 (stereo unspecified),inconclusive: 12%
14,O=C(CCN1C(=O)C2C3CCC(C3)C2C1=O)OCC(=O)c1ccc(Cl)cc1 (stereo unspecified),inconclusive: -2%
15,COc1ccc(S(=O)(=O)Nc2cccc(S(=O)(=O)NC3=NCCC3)c2)cc1[N+](=O)[O-],inactive: 10.6%
16,CCOc1ccc(NC(=O)c2ccc(CN3CCc4ccccc4C3)cc2)cc1,inconclusive: -34.9%
17,O=C(Nc1ccc(Br)cc1Br)c1cccc2c1C(=O)N(C1CCCCC1)C2,inactive: 2.9%
18,COc1ccc(/C=N/Nc2nc(-c3ccc(C)cc3)c(NC(C)=O)s2)cc1,inconclusive: 35.6%
19,CC(=O)c1ccc(OCc2ncc(C(F)(F)F)cc2Cl)cc1,inconclusive: -9.8%
20,COc1ccc(CCNC(=O)c2cc3c(=O)n4ccccc4nc3n(CC3CCCO3)c2=N)cc1 (stereo unspecified),inactive: -0.8%
21,CN1N=C2c3ccccc3CCCC2C1c1ccc(F)cc1 (stereo unspecified),inconclusive: -47.4%
22,CC(C)c1nc2sc3c(=S)nc[nH]c3c2c2c1CCC2,inconclusive: -109%
23,O=[N+]([O-])c1ccccc1S(=O)(=O)Nc1ccc(-c2ccc(N3CCCC3)nn2)cc1,inactive: 10.2%

# Individual results from the entries so far.
# Value for COc1ccc(/C=N/Nc2nc(-c3ccc(C)cc3)c(NC(C)=O)s2)cc1 under inhibition: inconclusive: 35.6%
# Value for O=C(CCN1C(=O)C2C3CCC(C3)C2C1=O)OCC(=O)c1ccc(Cl)cc1 (stereo unspecified) under inhibition: inconclusive: -2%

# Going on with the list.

row,Compound,inhibition
1,CCCN(C(=O)COc1ccc(C(C)=O)cc1OC)C1CCS(=O)(=O)C1 (stereo unspecified),inactive: -3.1%
2,C[n+]1cccc2c(Br)ccc([O-])c21,inconclusive: -64.1%
3,COc1cc(C(=O)Nc2ccc3c(c2)nc(C)n3C)cc(OC)c1OC,inconclusive: 4.2%
4,COc1ccc2[nH]c3c(N4CCc5ccccc5C4)ncnc3c2c1,inconclusive: -28.8%
5,COc1ccc(-c2csc(C(C)(O)c3ccncc3)n2)cc1OC (stereo unspecified),inactive: 1.5%
6,CC(=O)Nc1ccc(NC(=O)c2ccc(COc3ccc(C)cc3)o2)cc1,inconclusive: 4%
7,O=C(COc1ccc(Cl)cc1Cl)NC(=O)N1CCOCC1,inactive: -1.3%
8,Cc1cc(Cl)ccc1N(CC(=O)NCc1ccccc1)S(C)(=O)=O,inconclusive: 9.6%
9,CCCN(CCC)S(=O)(=O)c1ccc(C(=O)Nc2ccc(S(=O)(=O)Nc3nnc(CC)s3)cc2)cc1,inconclusive: -10%
10,C=CCc1ccccc1OCC(O)CN1C(=O)c2ccccc2C1=O (stereo unspecified),inconclusive: -36.4%
11,O=C(COC(=O)CSc1ccc([N+](=O)[O-])cc1)NC1CCCCCCC1,inconclusive: 3.3%
12,CCC(C)N1CCN(S(=O)(=O)c2ccc(NC(C)=O)cc2)CC1 (stereo unspecified),inactive: 7.8%
13,CCN(CC)c1cc(C)c(C#N)c2nc3ccccc3n12,inconclusive: -44.6%
14,CCOC(=O)C1=CNS(=O)(=O)NC1c1ccc(C[C@H](NC(=O)CNC(=O)CCc2ccccc2)C(N)=O)cc1 (stereo partly specified),inactive: -3.5%
15,COC(=O)c1ccc(/C=N/N2CCN(Cc3ccccc3Cl)CC2)cc1,inconclusive: 97.6%
16,CCOC(=O)CSc1nnc2n(Cc3ccccc3)c(=O)c3c4c(sc3n12)CCC4,inactive: 0.3%
17,CNC(=S)N/N=C/c1ccc(C(C)C)cc1,inactive: -4.4%
18,O=C1NN(c2ccccc2)C(=O)/C1=C\c1cccn1-c1ccc(Cl)c([N+](=O)[O-])c1,inconclusive: 28.7%
19,CCOc1ccc2[nH]c3nc(SCC(=O)OC(C)C)nnc3c2c1,inconclusive: -10.7%
20,O=C(N/N=C/c1cc(Cl)ccc1O)c1ccncc1,inactive: -1.6%
21,Nc1ccc2nc(-c3ccccc3)cnc2c1,inconclusive: -6.7%
22,Nc1c(NCCN2CCOCC2)c2ccccc2oc1=O,inactive: 2.3%
23,Cc1cccc(C(CC(=O)N2CCCCC2)c2ccccc2)c1O (stereo unspecified),inconclusive: -87.2%

row,Compound,inhibition
1,CC1(C)SC(=S)N(/N=C/c2cccnc2)C1N(O)C(=O)Nc1ccccc1 (stereo unspecified),inconclusive: 70.6%
2,O=C(Nc1ccc(Cl)cc1)Nc1ccccn1,inconclusive: 9.3%
3,CSc1cccc(NC(=O)CN(C2CCCCC2)S(C)(=O)=O)c1,inconclusive: 6%
4,Cc1ccc(NC2=CC(=O)CC(C)(C)C2)cc1Cl,inconclusive: 5.3%
5,Cc1cccc(NC(=O)c2cnccn2)c1,inconclusive: -6.2%
6,COc1ccc(C(=O)c2sc(Nc3ccc(NC(C)=O)cc3)nc2C)cc1,inconclusive: 13%
7,Cc1ccc([C@H]2C[C@H](O)[C@@H](n3cc(COC(=O)c4ccccc4)nn3)CN2C(=O)c2cccs2)cc1,inactive: -2.3%
8,CSc1nnc(-c2ccc(C(F)(F)F)nc2C)o1,inconclusive: 39.3%
9,CCCc1cc(=O)c2ccc(OC/C(C)=N/O)cc2o1,inconclusive: 130%
10,Cc1c(CC(=O)N[C@@H](C)C(=O)O)c(=O)oc2cc3oc4c(c3cc12)CCCC4,inconclusive: 8.4%
11,CCc1nc(N2CCN(C(=O)c3ccco3)CC2)c2c3c(sc2n1)CCCC3,inactive: 15.5%
12,CC(C)NC(=O)COc1coc(CN2CCN(C(=O)c3ccco3)CC2)cc1=O,inactive: 4.7%
13,COc1cccc(/C=N/NC(=O)c2ccc(=O)[nH]n2)c1O,inactive: -6.3%
14,Cc1cc(NC(=O)CSc2ccc(Cl)cc2)no1,inactive: 1.6%
15,O=C(O)c1ccccc1C(=O)Nc1nc(-c2ccccc2)cs1,inconclusive: 3.5%
16,CC(C)CNC(=S)N(CCCN(C)C)Cc1cc2cc3c(cc2[nH]c1=O)OCCO3,inconclusive: 17.1%
17,CCN(CC)CCNC(=O)c1ccc(NC(=O)C2CC(=O)N(c3ccc4c(c3)OCCO4)C2)cc1 (stereo unspecified),inconclusive: -16.6%
18,CN1C(=S)SC(/[N+]([O-])=C\c2ccccc2F)C1(C)C (stereo unspecified),inconclusive: 112%
19,COc1cccc(-c2cc3nc(NCc4ccc(C)cc4C)n(C)c(=O)c3s2)c1,inactive: -0.4%
20,COC(=O)C1=CN(Cc2ccc(OC)c(OC)c2)C=C(C(=O)OC)C1c1ccccc1F,inconclusive: 26.1%
21,O=C(NCc1cccnc1)c1sc2ccccc2c1Cl,inactive: -7.3%
22,Cc1c(Cl)cccc1NC(=S)NCc1ccccc1,inactive: -2.5%

# Already shown: an excerpt of the list.
row,Compound,inhibition
19,CCOc1ccc2[nH]c3nc(SCC(=O)OC(C)C)nnc3c2c1,inconclusive: -10.7%
20,O=C(N/N=C/c1cc(Cl)ccc1O)c1ccncc1,inactive: -1.6%
21,Nc1ccc2nc(-c3ccccc3)cnc2c1,inconclusive: -6.7%
22,Nc1c(NCCN2CCOCC2)c2ccccc2oc1=O,inactive: 2.3%
23,Cc1cccc(C(CC(=O)N2CCCCC2)c2ccccc2)c1O (stereo unspecified),inconclusive: -87.2%
1,CC1(C)SC(=S)N(/N=C/c2cccnc2)C1N(O)C(=O)Nc1ccccc1 (stereo unspecified),inconclusive: 70.6%
2,O=C(Nc1ccc(Cl)cc1)Nc1ccccn1,inconclusive: 9.3%
3,CSc1cccc(NC(=O)CN(C2CCCCC2)S(C)(=O)=O)c1,inconclusive: 6%
4,Cc1ccc(NC2=CC(=O)CC(C)(C)C2)cc1Cl,inconclusive: 5.3%
5,Cc1cccc(NC(=O)c2cnccn2)c1,inconclusive: -6.2%
6,COc1ccc(C(=O)c2sc(Nc3ccc(NC(C)=O)cc3)nc2C)cc1,inconclusive: 13%
7,Cc1ccc([C@H]2C[C@H](O)[C@@H](n3cc(COC(=O)c4ccccc4)nn3)CN2C(=O)c2cccs2)cc1,inactive: -2.3%
8,CSc1nnc(-c2ccc(C(F)(F)F)nc2C)o1,inconclusive: 39.3%
9,CCCc1cc(=O)c2ccc(OC/C(C)=N/O)cc2o1,inconclusive: 130%
10,Cc1c(CC(=O)N[C@@H](C)C(=O)O)c(=O)oc2cc3oc4c(c3cc12)CCCC4,inconclusive: 8.4%
11,CCc1nc(N2CCN(C(=O)c3ccco3)CC2)c2c3c(sc2n1)CCCC3,inactive: 15.5%
12,CC(C)NC(=O)COc1coc(CN2CCN(C(=O)c3ccco3)CC2)cc1=O,inactive: 4.7%
13,COc1cccc(/C=N/NC(=O)c2ccc(=O)[nH]n2)c1O,inactive: -6.3%
14,Cc1cc(NC(=O)CSc2ccc(Cl)cc2)no1,inactive: 1.6%
15,O=C(O)c1ccccc1C(=O)Nc1nc(-c2ccccc2)cs1,inconclusive: 3.5%
16,CC(C)CNC(=S)N(CCCN(C)C)Cc1cc2cc3c(cc2[nH]c1=O)OCCO3,inconclusive: 17.1%
17,CCN(CC)CCNC(=O)c1ccc(NC(=O)C2CC(=O)N(c3ccc4c(c3)OCCO4)C2)cc1 (stereo unspecified),inconclusive: -16.6%
18,CN1C(=S)SC(/[N+]([O-])=C\c2ccccc2F)C1(C)C (stereo unspecified),inconclusive: 112%
19,COc1cccc(-c2cc3nc(NCc4ccc(C)cc4C)n(C)c(=O)c3s2)c1,inactive: -0.4%
20,COC(=O)C1=CN(Cc2ccc(OC)c(OC)c2)C=C(C(=O)OC)C1c1ccccc1F,inconclusive: 26.1%
21,O=C(NCc1cccnc1)c1sc2ccccc2c1Cl,inactive: -7.3%
